# Assay results: the supplement of paper PMC12819154, “High-throughput peptide-centric local stability assay extends protein–ligand identification to membrane proteins, tissues and bacteria” (Nature Structural & Molecular Biology, 2025)
# Chains of the proteins cited; added tags and fusions are not shown. Lines headed by an entry give the natural chain unless they say otherwise; changes in a name come on top.
# UniProt Q99J56: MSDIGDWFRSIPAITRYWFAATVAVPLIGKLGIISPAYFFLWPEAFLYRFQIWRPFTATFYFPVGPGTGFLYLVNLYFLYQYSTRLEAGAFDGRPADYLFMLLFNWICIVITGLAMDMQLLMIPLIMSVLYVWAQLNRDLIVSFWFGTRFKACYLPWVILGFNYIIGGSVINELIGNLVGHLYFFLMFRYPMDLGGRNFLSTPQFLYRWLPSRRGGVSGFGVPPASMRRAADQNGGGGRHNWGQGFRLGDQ
# UniProt Q925B0: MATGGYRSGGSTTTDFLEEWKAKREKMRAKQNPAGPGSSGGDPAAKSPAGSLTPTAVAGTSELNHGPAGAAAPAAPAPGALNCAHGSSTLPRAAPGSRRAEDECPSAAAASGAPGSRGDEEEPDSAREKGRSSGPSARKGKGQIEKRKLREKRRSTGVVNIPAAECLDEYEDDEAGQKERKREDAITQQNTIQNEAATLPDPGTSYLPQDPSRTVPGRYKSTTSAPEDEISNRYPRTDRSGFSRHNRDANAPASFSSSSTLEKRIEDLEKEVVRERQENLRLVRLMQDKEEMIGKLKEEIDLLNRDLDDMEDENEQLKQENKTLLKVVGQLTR
# UniProt Q8VDG3: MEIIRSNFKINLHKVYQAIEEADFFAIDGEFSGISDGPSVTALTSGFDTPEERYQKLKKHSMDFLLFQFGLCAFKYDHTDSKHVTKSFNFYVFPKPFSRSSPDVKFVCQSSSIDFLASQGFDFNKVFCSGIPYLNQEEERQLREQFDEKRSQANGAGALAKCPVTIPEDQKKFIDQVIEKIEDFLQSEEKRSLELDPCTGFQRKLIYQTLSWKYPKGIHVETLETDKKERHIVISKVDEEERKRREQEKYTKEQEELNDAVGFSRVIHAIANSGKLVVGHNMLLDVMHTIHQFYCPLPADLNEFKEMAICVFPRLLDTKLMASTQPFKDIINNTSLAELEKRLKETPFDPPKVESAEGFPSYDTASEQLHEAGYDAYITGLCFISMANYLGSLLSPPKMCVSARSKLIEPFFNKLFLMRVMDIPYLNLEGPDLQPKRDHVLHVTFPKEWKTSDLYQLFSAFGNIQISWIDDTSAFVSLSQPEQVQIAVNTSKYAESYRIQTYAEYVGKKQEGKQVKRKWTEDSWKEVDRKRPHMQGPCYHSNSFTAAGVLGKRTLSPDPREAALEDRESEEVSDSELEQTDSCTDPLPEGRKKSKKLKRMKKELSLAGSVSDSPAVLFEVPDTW
# UniProt Q91X44: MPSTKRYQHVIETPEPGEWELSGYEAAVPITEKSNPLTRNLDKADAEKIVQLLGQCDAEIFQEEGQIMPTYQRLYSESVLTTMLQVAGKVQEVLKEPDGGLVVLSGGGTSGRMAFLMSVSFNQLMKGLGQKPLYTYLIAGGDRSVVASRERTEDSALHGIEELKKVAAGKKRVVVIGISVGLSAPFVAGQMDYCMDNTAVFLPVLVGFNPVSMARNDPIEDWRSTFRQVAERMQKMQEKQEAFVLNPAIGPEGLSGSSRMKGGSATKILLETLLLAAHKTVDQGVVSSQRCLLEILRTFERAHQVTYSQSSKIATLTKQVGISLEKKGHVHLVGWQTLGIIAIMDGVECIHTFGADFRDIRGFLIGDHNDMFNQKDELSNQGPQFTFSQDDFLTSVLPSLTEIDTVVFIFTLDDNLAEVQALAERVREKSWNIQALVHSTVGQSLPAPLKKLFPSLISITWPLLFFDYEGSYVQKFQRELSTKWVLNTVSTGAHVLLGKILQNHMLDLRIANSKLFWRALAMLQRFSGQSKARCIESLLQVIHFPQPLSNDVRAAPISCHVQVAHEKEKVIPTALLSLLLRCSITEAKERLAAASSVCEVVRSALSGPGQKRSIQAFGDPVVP
# UniProt Q91V76: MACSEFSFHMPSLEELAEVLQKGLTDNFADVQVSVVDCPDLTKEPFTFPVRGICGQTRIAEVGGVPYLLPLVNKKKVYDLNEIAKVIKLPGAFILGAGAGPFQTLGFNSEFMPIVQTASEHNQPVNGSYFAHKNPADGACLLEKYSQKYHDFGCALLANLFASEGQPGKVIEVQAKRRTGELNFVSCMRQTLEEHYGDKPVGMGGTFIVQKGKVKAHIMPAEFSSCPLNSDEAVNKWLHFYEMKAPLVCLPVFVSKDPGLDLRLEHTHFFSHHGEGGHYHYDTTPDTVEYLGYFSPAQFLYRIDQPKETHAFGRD
# UniProt Q924T2, whole entry: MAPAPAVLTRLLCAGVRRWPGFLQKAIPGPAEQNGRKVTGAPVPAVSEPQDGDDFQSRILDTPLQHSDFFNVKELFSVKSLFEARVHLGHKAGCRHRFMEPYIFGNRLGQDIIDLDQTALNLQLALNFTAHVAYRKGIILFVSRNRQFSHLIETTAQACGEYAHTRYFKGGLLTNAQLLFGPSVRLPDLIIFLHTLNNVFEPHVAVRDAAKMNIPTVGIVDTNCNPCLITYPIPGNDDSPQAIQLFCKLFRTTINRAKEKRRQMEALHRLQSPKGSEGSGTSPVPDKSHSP
# UniProt Q91YN5: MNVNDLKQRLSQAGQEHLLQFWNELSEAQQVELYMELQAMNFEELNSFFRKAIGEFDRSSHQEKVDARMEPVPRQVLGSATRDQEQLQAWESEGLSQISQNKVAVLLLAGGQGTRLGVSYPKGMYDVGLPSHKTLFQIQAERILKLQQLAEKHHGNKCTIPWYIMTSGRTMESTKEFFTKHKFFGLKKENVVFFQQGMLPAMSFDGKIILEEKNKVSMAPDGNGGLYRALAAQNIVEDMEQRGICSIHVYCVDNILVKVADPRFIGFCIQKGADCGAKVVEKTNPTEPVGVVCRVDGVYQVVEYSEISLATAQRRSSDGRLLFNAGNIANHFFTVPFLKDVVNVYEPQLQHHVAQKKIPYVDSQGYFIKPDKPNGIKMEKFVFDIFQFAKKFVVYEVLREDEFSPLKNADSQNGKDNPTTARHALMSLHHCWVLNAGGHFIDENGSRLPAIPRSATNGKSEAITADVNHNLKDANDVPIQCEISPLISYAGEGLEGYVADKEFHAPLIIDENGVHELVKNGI
# UniProt Q91XI1: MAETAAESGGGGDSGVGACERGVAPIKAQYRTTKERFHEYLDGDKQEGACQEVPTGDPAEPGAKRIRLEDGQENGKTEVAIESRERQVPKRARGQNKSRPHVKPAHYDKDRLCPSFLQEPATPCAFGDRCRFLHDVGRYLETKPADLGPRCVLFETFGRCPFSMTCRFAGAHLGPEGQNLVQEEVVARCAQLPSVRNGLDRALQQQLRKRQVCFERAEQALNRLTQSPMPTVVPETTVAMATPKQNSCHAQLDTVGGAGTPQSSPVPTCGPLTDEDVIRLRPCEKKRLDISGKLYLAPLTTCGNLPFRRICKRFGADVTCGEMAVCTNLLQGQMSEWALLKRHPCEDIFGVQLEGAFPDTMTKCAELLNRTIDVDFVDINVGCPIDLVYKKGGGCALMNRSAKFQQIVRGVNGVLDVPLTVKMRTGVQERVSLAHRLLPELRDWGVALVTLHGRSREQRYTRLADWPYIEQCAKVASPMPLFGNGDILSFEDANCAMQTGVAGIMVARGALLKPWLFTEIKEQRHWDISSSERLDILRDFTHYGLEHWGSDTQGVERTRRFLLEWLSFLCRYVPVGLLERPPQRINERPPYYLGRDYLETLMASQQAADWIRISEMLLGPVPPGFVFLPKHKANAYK
# UniProt Q8VDL4: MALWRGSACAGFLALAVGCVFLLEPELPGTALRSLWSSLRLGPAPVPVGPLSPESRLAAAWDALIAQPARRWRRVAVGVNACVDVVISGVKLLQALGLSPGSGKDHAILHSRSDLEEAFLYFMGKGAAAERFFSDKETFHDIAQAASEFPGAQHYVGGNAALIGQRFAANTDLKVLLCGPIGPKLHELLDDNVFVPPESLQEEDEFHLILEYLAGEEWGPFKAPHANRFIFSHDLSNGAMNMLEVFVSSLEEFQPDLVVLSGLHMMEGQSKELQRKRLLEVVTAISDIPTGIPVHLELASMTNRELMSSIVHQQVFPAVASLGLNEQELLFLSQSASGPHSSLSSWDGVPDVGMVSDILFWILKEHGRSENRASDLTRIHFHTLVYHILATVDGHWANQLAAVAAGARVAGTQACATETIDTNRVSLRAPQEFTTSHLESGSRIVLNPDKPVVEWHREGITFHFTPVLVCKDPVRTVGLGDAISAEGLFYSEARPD
# UniProt Q8VE91: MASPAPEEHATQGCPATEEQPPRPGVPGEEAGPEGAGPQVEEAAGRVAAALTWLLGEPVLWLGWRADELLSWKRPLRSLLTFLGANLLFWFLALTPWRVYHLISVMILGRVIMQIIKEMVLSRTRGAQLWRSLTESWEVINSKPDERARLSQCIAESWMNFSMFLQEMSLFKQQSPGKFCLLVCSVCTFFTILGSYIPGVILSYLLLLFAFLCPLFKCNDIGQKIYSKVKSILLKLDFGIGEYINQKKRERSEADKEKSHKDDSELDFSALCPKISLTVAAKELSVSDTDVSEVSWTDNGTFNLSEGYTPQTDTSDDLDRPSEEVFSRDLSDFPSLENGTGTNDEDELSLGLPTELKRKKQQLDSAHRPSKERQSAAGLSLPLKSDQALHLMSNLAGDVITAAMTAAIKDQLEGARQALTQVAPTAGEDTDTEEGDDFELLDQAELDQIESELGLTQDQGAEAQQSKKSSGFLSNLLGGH
# UniProt Q91VX2: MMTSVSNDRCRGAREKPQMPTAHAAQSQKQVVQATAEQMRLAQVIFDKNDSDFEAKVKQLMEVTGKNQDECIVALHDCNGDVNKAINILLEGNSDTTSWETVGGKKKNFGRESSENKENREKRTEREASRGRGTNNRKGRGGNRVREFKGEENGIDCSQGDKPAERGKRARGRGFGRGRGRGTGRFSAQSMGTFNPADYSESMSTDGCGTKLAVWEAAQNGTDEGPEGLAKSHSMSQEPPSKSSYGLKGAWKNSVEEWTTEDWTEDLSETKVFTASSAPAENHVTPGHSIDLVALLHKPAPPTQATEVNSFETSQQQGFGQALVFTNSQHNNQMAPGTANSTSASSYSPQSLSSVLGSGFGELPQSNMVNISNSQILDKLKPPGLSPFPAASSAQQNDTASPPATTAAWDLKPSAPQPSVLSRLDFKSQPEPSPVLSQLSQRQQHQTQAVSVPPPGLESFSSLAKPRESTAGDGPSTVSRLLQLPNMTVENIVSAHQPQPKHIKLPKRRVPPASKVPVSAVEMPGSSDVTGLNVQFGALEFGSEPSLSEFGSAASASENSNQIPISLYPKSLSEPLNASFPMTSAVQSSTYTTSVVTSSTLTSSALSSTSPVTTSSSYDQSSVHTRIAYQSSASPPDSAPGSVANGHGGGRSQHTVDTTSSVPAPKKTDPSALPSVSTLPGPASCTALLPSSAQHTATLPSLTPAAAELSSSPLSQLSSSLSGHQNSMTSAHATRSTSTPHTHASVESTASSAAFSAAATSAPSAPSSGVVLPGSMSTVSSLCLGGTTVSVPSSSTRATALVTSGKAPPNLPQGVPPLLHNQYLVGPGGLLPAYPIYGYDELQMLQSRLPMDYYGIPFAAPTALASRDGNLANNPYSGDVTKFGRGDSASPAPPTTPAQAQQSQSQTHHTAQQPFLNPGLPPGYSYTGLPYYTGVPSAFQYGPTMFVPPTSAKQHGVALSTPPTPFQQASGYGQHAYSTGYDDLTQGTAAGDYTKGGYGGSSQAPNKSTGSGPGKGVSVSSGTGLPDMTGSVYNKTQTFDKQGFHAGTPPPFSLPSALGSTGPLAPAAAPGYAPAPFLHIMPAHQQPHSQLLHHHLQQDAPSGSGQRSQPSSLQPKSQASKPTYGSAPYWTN
# UniProt Q91WG0: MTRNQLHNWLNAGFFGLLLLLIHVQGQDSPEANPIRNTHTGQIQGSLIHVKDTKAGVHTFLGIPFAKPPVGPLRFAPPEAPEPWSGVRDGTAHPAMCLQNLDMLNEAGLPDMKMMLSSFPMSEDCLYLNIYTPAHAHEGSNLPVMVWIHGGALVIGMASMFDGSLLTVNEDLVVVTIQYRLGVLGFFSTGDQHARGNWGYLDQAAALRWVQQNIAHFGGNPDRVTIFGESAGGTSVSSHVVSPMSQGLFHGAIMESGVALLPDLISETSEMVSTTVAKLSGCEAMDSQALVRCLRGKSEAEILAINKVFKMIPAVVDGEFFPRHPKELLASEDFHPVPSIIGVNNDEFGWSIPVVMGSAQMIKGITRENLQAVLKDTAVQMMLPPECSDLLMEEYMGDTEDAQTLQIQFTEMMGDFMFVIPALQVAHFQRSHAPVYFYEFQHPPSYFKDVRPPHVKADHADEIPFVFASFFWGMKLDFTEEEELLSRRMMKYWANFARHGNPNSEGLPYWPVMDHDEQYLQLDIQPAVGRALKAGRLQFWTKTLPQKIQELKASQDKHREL
# UniProt Q99J83: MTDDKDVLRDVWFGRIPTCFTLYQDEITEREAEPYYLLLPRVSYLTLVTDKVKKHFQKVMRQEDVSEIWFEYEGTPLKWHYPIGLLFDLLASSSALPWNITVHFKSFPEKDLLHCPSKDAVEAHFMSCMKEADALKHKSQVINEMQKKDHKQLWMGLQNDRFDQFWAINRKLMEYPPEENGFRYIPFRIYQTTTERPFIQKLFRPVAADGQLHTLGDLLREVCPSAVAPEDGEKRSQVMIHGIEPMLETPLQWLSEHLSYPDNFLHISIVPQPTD
# This is one part of the list. Most entries show no effect beyond the scatter of the controls.
# Compound: CN[C@@H]1C[C@H]2O[C@@](C)([C@@H]1OC)n1c3ccccc3c3c4c(c5c6ccccc6n2c5c31)C(=O)NC4 [staurosporine]
# Assay: log2 fold change of pooled soluble protein (PISA), ligand vs vehicle (log2 ratio); higher = more thermally stabilized
# Details: ligand concentration: 20 uM; assay format: PISA pool 52.9/55.5/58.6 C
row,Target,log2 fold change of pooled soluble protein
1,UniProt Q925J9,-0.0453
2,UniProt Q91WE2,0.214
3,UniProt Q99J56,-0.21
4,UniProt Q99J39,0.0866
5,UniProt Q925B0,0.515
6,UniProt Q8VDG3,0.0627
7,UniProt Q91X44,0.0922
8,UniProt Q91V01,-0.0783
9,UniProt Q920A7,-0.00729
10,UniProt Q91W67,0.0133
11,UniProt Q8VDI9,0.2
12,UniProt Q922Y1,-0.0469
13,UniProt Q91VH6,0.0251
14,UniProt Q8VDI7,0.124
15,UniProt Q922D8,-0.109
16,UniProt Q91WG1,0.141
17,UniProt Q91ZM2,-0.307
18,UniProt Q91ZJ5,0.0134
19,UniProt Q91WS0,-0.229

row,Target,log2 fold change of pooled soluble protein
1,UniProt Q91V76,-0.0643
2,UniProt Q924T2,-0.332
3,UniProt Q99J77,-0.1
4,UniProt Q91YN5,-0.00187
5,UniProt Q91WK0,0.0434
6,UniProt Q99J45,0.114
7,UniProt Q91XI1,-0.186
8,UniProt Q921W4,-0.0341
9,UniProt Q91VA6,0.0718
10,UniProt Q91YT7,0.0779
11,UniProt Q99J27,-0.347
12,UniProt Q8VE19,-0.0289
13,UniProt Q8VDL4,-0.0973
14,UniProt Q921G7,0.0942
15,UniProt Q91V09,0.0368
16,UniProt Q8VE91,-0.0989
17,UniProt Q91VX2,-0.0176
18,UniProt Q91WG0,-0.0577
19,UniProt Q99J83,-0.0489

# Copied from the results shown (two entries):
row,Target,log2 fold change of pooled soluble protein
9,UniProt Q91VA6,0.0718
10,UniProt Q91YT7,0.0779
